Data taken from PubChem BioAssay AID493014 (National Center for Advancing Translational Sciences (NCATS), 2011).
Screen size: about 340,000 compounds; about 170 (0.05%) were called active. The shares of active, inactive and inconclusive entries below differ from those in the screen. Calls come from the whole dose curve; as a rule, active = well fitted inhibition curve with a large enough effect in the signal ratio, with a control signal flat (not every such curve was filed as active); inconclusive = small, poorly fitted or top-dose-only effect, or effect the other way, or a change in a side signal; inactive = flat fitted curve, though single readings scatter; the % refers to the signal ratio. A potency beside an inconclusive call is a rough fit, not a confirmed value.
Potency is the fitted concentration of half-maximal effect.

Assay: qHTS Assay to Find Inhibitors of Chronic Active B-Cell Receptor Signaling;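 for activity change, negative = inhibition: plate controls were basal doxycycline-induced cells for no effect and cells given 10 µM MG132 for full effect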
Details: ABC-DLBCL IkBa-CBG/CBR reporter, luminescence ratio (green luciferase fused to IkBa over red control in TMD8 lymphoma cells), 4 h; activity change, negative = inhibition: at 46.1 µM (top of the series) unless noted
Procedure, shortened: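 Doxycycline induced both beetle luciferases in TMD8 lymphoma cells; IKK-driven degradation limits the IkappaBalpha-fused green signal, while red luminescence normalises for cell number and nonspecific effects. Compounds tested up to 46 uM, 4 hrs.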
For `COc1ccccc1Cn1nnc2c(=O)[nH]c(C3CCN(C(=O)c4ccccc4Cl)CC3)nc21`, the activity change, negative = inhibition was inconclusive: 0.274%. For `CCOC(=O)c1c(NC(=O)COC(=O)c2cnc(C)cn2)sc(C(=O)N(C)C)c1C`, the activity change, negative = inhibition was inconclusive: 11.5%. In the case of `CCOC(=O)CSc1n[nH]c(NC(=O)c2cccc(C)c2)n1`, the activity change, negative = inhibition was inconclusive: 12.8%. For `O=c1[nH]c(=O)n([C@H]2C[C@H](O)[C@@H](CO)O2)cc1C(F)(F)F`, the activity change, negative = inhibition was inconclusive: 1.2%. With `OCCC1CN(Cc2ccc3nsnc3c2)CCN1C1CCCC1` (stereo not drawn) the Potency was inconclusive: 35.5 µM [falling, single point]. For `CCOC(=O)CC1C(=O)NCCN1S(=O)(=O)c1ccc(OC)cc1` (stereo not drawn), the activity change, negative = inhibition was “inactive”. With `O=c1cc(N2CCc3ccccc32)[nH]c(=O)n1-c1ccccc1` the Potency was inconclusive: 18.4 µM [falling, partial curve]. With `Cc1cc(Cl)ccc1OC(C)C(=O)NCCc1ccc2c(c1)OCCO2` (stereo not drawn) the activity change, negative = inhibition was inconclusive: -19.3%. For `O=C(Cc1ccc(Cl)cc1)Nc1cccc2ncccc12`, the activity change, negative = inhibition was “inactive”. In the case of `C[N+]1(CCCCCCC(=O)/C=N/O)CCCCCC1`, the Potency was inconclusive: 18.4 µM [rising, single point]. With `CCCCCC1=CCC/C1=N\NC(=O)c1ccc2c(c1)OCO2` the Potency was inconclusive: 28.2 µM [falling, single point]. In the case of `Cc1cc(C)c2nc(N3CCN(C(=O)c4ccco4)CC3)sc2c1`, the activity change, negative = inhibition was inconclusive: 10.5%. For `CN(C(=O)c1cccc(COc2ccc(Cl)cc2Cl)c1)c1ccccc1`, the activity change, negative = inhibition was inconclusive: -0.365%. For `CCCC(=O)Nc1nnc(S(=O)(=O)N(CC(C)C)c2ccccc2)s1`, the activity change, negative = inhibition was inconclusive: 6.89%. In the case of `COCC(C)n1c(C)cc(C(=O)CN2C(=O)NC3(CCCCC3C)C2=O)c1C` (stereo not drawn), the activity change, negative = inhibition was “inactive”. With `COc1ccc(-c2cc3ncc(C(C)=O)c(C)n3n2)cc1` the activity change, negative = inhibition was inconclusive: 5.48%. In the case of `COCCn1c(SCc2ccc(C(=O)OC)o2)nc2ccccc2c1=O`, the activity change, negative = inhibition was “inactive”. In the case of `COc1ccccc1CCC(=O)OCC(=O)NC1CCCC1`, the activity change, negative = inhibition was inconclusive: 11%. With `O=C(/C=C/c1ccc2c(c1)OCO2)NCCSCc1c(Cl)cccc1Cl` the activity change, negative = inhibition was inconclusive: -16.8%. In the case of `COc1ccc(CNC(=O)c2ccc(-c3ccccc3)cc2)cc1`, the activity change, negative = inhibition was inconclusive: -14.6%. In the case of `Cc1cc(C)c(S(=O)(=O)NCC(=O)NCc2cc(=O)n(C)c(=O)n2C)c(C)c1`, the activity change, negative = inhibition was inconclusive: 0.0796%. With `Cc1c(C(=O)Nc2cccc(Cl)c2)c2ccccn2c1CCc1ccncc1` the activity change, negative = inhibition was inconclusive: 9.89%. With `CCCOC(=O)CSC1=C(C#N)C(c2ccc3c(c2)OCO3)CC(=O)N1` (stereo not drawn) the Potency was inconclusive: 20 µM [falling, partial curve, poor fit].
